{"source": "patent US20120202840A1", "about": "“Use of Flubendazole and Vinca Alkaloids for Treatment of Hematological Diseases” (priority 2009, published 2012)", "assay_type_in_all_cases": "cell-based", "key": {"A549": {"system": "A549", "assay": "MTS assay, A549", "conditions": "Homo sapiens", "method": "(§1) Next, whether microtubule inhibition was functionally important for flubendazole's cytotoxicity was determined.\n(§2) Leukemia (U937, MDAY, CEM, CEM-VBL) and solid tumor cell lines (PPC-1, HeLa) were cultured in RPMI 1640 medium. The epidermoid carcinoma cell lines KB-3-1 and KB-4.0-HTI^23 were grown in Dulbecco's Modified Eagle Medium. The lung carcinoma cell lines A549 and A549.EpoB40 were grown in RPMI with the latter supplemented with 20% fetal calf serum (FCS), and 40 nM epothilone B.^24 Leukemia cell lines OCI-AML2, CEM, and NB4 and all the myeloma cell lines (OPM2, KMS11, JJN3 LP1, H929, L1, KMS12, KSM18 and OCI My5) were maintained in Iscove's Modified Dulbecco's Medium (IMDM). TEX cells were maintained in IMDM, 15% FCS, 1% penicillin-streptomycin, 2 mM L-glutamine, 20 ng/mL SCF, 2 ng/mL IL-3. Unless otherwise noted, all media were supplemented with 10% FCS, 100 units/mL of streptomycin and 100 μg/mL of penicillin (all from Hyclone, Logan, Utah). Cells were incubated in a humidified air atmosphere containing 5% CO2 at 37° C.\n(§3) Cell growth and viability was measured using the 3-(4,5-dimethylthiazol-2-yl)-5-(3-carboxymethoxyphenyl)-2-(4-sulfophenyl)-2H-tetrazolium inner salt (MTS) reduction assay (Promega, Madison, Wis.) according to the manufacture's protocol and as previously described^25. […] Optical density (OD) was measured at 490 nm."}, "KB-4.0-HTI": {"system": "KB-4.0-HTI", "assay": "MTS assay, KB-4.0-HTI (α-tubulin mutant)", "method": "as §1, §2, §3"}, "A549.EpoB40": {"system": "A549.EpoB40", "assay": "MTS assay, A549.EpoB40 (β-tubulin mutant)", "method": "as §1, §2, §3"}, "KB-3-1": {"system": "KB-3-1", "assay": "MTS assay, KB-3-1 wild type", "conditions": "Homo sapiens", "method": "as §1, §2, §3"}, "[1]": {"conditions": "ratio of IC50 values of Table 1"}}, "data": [{"smiles": "COc1cc2c(c(OC)c1OC)-c1ccc(OC)c(=O)cc1[C@@H](NC(C)=O)CC2", "note": "[colchicine]", "values": [{"measurement": "IC50", "setting": "A549", "result": "0.09 ± 0.01", "unit": "µM"}, {"measurement": "IC50", "setting": "KB-4.0-HTI", "result": "41.6 ± 5.5", "unit": "µM"}, {"measurement": "IC50 higher in KB-4.0-HTI than in KB-3-1 wild type cells", "setting": "KB-4.0-HTI; [1]", "result": 2.5, "unit": "fold"}, {"measurement": "IC50", "setting": "A549.EpoB40", "result": "0.06 ± 0.01", "unit": "µM"}, {"measurement": "IC50 lower in A549.EpoB40 than in A549 control cells", "setting": "A549.EpoB40; [1]", "result": 1.5, "unit": "fold"}, {"measurement": "IC50", "setting": "KB-3-1", "result": "14.9 ± 4.5", "unit": "µM"}]}]}
